Experiment [1] deals with 2xFlag-MTNR1A (mouse melatonin receptor MTNR1A) (mouse) (UniProt Q61184). Kind of experiment: co-IP; Flag-MTNR1A or Flag-MTNR1B co-transfected with HA-MRAP2 in HEK293 cells; lysate on Flag Nanoab Agarose beads, 2 h at 4°C, three washes with lysis buffer; blots with anti-HA or anti-Flag.
The target in experiment [2] is T1, 2xFlag-MTNR1B (mouse melatonin receptor MTNR1B) (mouse) (UniProt Q8CIQ6).
T1 sequence: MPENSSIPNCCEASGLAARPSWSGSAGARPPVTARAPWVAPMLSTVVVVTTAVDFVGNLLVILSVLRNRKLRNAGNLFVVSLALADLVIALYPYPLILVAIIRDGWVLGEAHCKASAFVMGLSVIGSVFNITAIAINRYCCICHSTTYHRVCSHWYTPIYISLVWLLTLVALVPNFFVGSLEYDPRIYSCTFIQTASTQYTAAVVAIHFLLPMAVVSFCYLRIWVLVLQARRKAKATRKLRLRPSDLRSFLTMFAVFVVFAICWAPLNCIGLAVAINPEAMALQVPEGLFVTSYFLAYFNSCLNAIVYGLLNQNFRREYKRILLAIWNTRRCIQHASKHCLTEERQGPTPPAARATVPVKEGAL
The experiment is described as above.

By UniProt entry, the sequences of proteins in these tests, tags left out.
UniProt Q61184: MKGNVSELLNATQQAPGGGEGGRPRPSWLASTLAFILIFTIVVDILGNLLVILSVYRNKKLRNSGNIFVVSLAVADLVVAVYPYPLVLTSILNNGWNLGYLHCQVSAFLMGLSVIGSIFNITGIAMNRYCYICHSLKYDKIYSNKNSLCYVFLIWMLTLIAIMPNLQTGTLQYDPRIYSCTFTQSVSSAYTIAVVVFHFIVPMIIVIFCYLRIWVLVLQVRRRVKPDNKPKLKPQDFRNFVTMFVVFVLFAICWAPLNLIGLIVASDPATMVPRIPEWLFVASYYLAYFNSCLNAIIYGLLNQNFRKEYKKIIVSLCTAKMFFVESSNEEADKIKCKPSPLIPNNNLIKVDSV

The next experiment concerns the target Flag-MTNR1A-VF1 (mouse) (UniProt Q61184). Kind of experiment: split reporter; BiFC with Venus fragments VF1 (on the receptors) and VF2 (on MRAP2), co-transfected cells fixed 24 h after transfection, confocal microscopy.
The target in another experiment is T2, Flag-MTNR1B-VF1 (mouse) (UniProt Q8CIQ6).
T2 sequence: T1 sequence
The description is as above.

No constants are given. Whether binding was seen depends on the method and setting. In cells and extracts the contact can be indirect. Some entries that bind do so weakly or less than the wild type. For some of these results: Where a sequence is shown, tags or fusion partners need not be part of it.

B1: 3xHA-MRAP2 (mouse melanocortin receptor accessory protein 2) (protein, UniProt D3Z1Q2 1-207)
chain: MEMSAQRLASNRTSPQSPSNSDYTWEYEYYEIGPVSFEGLKAHKYSIVIGFWVGLAVFVIFMFFVLTLLTKTGAPHQDNAESSERRFRMNSFVSDFGKPLESDKVFSRQGNEESRSLFHCYINEVEHLDRVKVCHQTTAIDSDVHLQEASRSSGRPEEELARFMKFDIPNFVNTEQSSFGEDDLLISEAPVLLENKPVSQTSRIDLD
As for B1, the binding result in experiment [1] and in experiment [2] was “binds” throughout.

B2: Flag-MRAP2-VF2 (protein, UniProt D3Z1Q2 1-207)
chain: B1 chain
Regarding B2, the binding result with Flag-MTNR1A-VF1 (mouse) and in the experiment with Flag-MTNR1B-VF1 (mouse) was “binds” throughout.

(Values after publication PMC12158745.)
